Article PMC8967866
Results are given in words; binding and its absence hold for the method and conditions named. Some results given as binding are weak or reduced against the parent protein; the word gives no strength.

Amino acid sequences for entries named in this document (tags omitted).
UniProt P48112: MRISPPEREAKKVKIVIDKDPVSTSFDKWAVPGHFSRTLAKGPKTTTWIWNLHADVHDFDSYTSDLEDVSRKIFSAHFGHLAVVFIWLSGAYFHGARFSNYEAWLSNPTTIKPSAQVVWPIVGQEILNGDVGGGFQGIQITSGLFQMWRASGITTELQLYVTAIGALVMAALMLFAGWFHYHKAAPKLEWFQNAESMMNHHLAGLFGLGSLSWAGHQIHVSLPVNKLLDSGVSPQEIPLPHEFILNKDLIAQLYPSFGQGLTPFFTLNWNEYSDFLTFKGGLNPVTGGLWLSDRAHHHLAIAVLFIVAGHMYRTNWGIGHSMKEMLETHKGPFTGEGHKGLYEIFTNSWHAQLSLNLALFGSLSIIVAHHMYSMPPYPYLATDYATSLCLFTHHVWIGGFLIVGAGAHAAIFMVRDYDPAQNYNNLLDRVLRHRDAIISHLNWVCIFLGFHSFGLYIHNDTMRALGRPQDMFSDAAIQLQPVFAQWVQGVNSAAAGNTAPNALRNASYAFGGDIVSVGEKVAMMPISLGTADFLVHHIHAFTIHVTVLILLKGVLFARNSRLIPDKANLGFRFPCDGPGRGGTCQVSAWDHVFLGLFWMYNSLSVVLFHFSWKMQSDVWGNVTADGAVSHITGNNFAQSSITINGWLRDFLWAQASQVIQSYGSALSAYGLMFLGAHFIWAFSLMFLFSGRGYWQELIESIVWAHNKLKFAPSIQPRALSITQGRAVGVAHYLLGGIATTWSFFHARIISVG

Target: PsaA of Cyanophora paradoxa photosystem I (Cyanophora paradoxa (endogenous, strain NIES-547)) (UniProt P48112)
Assay: cryo-EM structure; PSI tetramer purified from Cyanophora thylakoids; GraFix (glutaraldehyde cross-linked) tetramer at 3.8 Å with C2 symmetry; unfixed wild-type tetramer at 4.0 Å; focused maps of monomer1 and monomer2 at 3.3 Å and 3.2 Å; 0.03% β-DDM, 50 mM Mes-NaOH pH 6.5; both purified

## PsaA of Cyanophora paradoxa photosystem I (from UniProt P48112 1-752)
  binding: binds
